According to paper PMC3245618:
Positions count from the first letter of the chain named. Names may count otherwise. No constants are given. Whether binding was seen depends on the method and setting. Binding seen in cells or lysates may run through a third protein. Some binding calls cover weakened binding; strength is not graded here. Where a sequence is shown, tags or fusion partners need not be part of it.

Sequences of proteins named here, by UniProt entry; tags and fusion partners are left off.
UniProt P83916: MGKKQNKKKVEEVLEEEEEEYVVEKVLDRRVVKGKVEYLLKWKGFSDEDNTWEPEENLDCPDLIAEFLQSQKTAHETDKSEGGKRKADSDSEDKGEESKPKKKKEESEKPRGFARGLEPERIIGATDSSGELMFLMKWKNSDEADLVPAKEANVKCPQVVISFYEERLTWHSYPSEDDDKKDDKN

B1: GFP-KAP1 S473A, stably expressed in U2OS cells (protein, UniProt Q13263 1-835)
chain: MAASAAAASAAAASAASGSPGPGEGSAGGEKRSTAPSAAASASASAAASSPAGGGAEALELLEHCGVCRERLRPEREPRLLPCLHSACSACLGPAAPAAANSSGDGGAAGDGTVVDCPVCKQQCFSKDIVENYFMRDSGSKAATDAQDANQCCTSCEDNAPATSYCVECSEPLCETCVEAHQRVKYTKDHTVRSTGPAKSRDGERTVYCNVHKHEPLVLFCESCDTLTCRDCQLNAHKDHQYQFLEDAVRNQRKLLASLVKRLGDKHATLQKSTKEVRSSIRQVSDVQKRVQVDVKMAILQIMKELNKRGRVLVNDAQKVTEGQQERLERQHWTMTKIQKHQEHILRFASWALESDNNTALLLSKKLIYFQLHRALKMIVDPVEPHGEMKFQWDLNAWTKSAEAFGKIVAERPGTNSTGPAPMAPPRAPGPLSKQGSGSSQPMEVQEGYGFGSGDDPYSSAEPHVSGVKRSRAGEGEVSGLMRKVPRVSLERLDLDLTADSQPPVFKVFPGSTTEDYNLIVIERGAAAAATGQPGTAPAGTPGAPPLAGMAIVKEEETEAAIGAPPTATEGPETKPVLMALAEGPGAEGPRLASPSGSTSSGLEVVAPEGTSAPGGGPGTLDDSATICRVCQKPGDLVMCNQCEFCFHLDCHLPALQDVPGEEWSCSLCHVLPDLKEEDGSLSLDGADSTGVVAKLSPANQRKCERVLLALFCHEPCRPLHQLATDSTFSLDQPGGTLDLTLIRARLQEKLSPPYSSPQEFAQDVGRMFKQFNKLTEDKADVQSIIGLQRFFETRMNEAFGDTKFSAVLVEPPPMSLPGAGLSSQELSGGPGDGP
B2: GFP-KAP1 S473D, stably expressed in U2OS cells (protein, UniProt Q13263 1-835)
chain: B1 chain with A473D

Target: GST-HP1β (heterochromatin protein 1β) (UniProt P83916)
Assay: pull-down; recombinant GST-HP1β as bait; cell extracts from U2OS cells expressing GFP-KAP1 versions; only the target purified

Binder | binding
B1 | binds
B2 | binds
